Results from PMC5834214.
No constants are given. Whether binding was seen depends on the method and setting. In cells and extracts the contact can be indirect. These calls come from enrichment with a bait or labelling near it, and not all partners need be listed.

The chains behind the UniProt entries cited, without tags or fusion partners. Residues count along the entry.
UniProt P09992: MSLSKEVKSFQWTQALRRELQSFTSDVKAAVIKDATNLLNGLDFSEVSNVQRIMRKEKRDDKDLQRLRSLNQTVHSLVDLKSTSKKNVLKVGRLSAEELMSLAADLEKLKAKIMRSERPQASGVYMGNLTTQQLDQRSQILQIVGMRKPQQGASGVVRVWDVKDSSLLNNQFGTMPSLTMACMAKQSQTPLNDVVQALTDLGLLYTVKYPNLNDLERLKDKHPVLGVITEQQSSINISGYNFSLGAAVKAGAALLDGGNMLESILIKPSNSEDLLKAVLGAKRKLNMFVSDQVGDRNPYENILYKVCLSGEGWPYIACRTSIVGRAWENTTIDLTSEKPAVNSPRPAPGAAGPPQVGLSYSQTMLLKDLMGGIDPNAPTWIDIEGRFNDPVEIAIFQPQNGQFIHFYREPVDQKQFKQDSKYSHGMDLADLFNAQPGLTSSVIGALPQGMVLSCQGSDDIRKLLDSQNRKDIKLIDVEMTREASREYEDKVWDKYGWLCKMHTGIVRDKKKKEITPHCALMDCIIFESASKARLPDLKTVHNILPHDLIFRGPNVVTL
UniProt P68371: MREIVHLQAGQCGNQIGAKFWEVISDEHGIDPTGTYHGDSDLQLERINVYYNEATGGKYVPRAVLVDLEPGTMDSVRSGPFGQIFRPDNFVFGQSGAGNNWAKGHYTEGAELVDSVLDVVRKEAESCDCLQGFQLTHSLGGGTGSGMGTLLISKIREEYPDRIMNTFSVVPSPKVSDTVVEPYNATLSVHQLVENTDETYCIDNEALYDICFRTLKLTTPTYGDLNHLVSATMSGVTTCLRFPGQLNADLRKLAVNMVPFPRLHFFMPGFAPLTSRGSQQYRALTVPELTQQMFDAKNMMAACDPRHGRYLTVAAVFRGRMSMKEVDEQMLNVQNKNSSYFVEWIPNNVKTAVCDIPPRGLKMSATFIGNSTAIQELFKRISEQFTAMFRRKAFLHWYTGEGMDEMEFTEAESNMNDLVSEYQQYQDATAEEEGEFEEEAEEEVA
UniProt P38159: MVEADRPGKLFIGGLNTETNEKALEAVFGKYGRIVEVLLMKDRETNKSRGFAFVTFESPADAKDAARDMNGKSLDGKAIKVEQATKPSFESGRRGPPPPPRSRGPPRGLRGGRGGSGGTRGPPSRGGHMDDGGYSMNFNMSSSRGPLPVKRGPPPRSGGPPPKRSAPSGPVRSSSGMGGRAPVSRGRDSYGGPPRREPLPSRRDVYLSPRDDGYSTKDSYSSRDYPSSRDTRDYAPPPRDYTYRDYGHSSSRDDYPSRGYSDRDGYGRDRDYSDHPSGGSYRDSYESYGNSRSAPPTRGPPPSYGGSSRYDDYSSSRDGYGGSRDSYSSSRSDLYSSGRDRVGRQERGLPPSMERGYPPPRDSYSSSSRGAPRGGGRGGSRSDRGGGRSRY
UniProt P17844: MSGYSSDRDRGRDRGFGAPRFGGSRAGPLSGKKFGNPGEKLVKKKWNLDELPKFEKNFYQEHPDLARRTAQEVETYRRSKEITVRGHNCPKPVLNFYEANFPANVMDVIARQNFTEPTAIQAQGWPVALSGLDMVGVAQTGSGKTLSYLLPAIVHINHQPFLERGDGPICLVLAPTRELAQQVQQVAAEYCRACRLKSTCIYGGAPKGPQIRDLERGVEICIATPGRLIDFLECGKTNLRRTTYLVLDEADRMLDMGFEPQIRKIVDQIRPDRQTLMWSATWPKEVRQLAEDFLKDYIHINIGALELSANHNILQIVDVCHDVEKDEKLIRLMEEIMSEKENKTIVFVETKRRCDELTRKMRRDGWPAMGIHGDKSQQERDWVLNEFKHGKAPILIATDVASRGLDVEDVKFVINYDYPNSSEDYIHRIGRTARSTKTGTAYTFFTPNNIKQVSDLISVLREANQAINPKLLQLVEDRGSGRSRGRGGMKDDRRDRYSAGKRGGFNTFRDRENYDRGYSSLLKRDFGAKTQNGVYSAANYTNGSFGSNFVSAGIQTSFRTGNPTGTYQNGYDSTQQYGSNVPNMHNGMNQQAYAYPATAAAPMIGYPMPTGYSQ
UniProt O60218: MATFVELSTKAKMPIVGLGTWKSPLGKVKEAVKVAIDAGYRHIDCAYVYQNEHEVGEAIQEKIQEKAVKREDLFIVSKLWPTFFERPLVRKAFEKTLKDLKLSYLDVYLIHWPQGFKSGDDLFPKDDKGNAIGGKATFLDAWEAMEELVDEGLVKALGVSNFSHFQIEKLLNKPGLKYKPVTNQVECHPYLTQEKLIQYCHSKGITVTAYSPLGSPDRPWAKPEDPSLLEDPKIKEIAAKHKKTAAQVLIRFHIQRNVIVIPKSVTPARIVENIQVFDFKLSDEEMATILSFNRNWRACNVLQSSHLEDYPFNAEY
UniProt P68104: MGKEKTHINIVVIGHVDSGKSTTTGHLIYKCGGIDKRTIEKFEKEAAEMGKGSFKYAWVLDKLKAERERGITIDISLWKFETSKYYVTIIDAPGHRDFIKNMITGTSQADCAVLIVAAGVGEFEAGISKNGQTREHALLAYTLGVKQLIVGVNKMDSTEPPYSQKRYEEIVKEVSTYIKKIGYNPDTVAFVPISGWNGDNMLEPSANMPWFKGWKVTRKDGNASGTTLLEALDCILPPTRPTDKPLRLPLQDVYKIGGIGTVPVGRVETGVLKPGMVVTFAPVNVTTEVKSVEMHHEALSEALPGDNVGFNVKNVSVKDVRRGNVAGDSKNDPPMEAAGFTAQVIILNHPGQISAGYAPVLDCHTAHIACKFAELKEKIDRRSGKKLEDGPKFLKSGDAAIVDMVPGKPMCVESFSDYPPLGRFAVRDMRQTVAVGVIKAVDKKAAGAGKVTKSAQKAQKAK
UniProt P10155: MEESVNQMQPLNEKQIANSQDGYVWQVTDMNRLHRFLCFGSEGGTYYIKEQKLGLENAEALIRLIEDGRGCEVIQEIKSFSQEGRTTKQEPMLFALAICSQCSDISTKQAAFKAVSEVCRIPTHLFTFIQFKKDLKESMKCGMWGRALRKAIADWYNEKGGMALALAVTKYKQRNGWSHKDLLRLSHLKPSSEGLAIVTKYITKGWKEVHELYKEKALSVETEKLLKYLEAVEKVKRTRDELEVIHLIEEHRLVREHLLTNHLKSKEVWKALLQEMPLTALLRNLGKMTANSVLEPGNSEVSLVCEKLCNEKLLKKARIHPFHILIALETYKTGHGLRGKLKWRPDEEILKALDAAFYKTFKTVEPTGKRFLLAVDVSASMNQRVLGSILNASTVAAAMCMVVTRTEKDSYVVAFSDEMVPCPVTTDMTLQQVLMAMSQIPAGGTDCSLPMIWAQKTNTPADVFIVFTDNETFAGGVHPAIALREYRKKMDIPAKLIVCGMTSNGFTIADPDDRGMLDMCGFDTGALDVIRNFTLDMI
UniProt Q09161: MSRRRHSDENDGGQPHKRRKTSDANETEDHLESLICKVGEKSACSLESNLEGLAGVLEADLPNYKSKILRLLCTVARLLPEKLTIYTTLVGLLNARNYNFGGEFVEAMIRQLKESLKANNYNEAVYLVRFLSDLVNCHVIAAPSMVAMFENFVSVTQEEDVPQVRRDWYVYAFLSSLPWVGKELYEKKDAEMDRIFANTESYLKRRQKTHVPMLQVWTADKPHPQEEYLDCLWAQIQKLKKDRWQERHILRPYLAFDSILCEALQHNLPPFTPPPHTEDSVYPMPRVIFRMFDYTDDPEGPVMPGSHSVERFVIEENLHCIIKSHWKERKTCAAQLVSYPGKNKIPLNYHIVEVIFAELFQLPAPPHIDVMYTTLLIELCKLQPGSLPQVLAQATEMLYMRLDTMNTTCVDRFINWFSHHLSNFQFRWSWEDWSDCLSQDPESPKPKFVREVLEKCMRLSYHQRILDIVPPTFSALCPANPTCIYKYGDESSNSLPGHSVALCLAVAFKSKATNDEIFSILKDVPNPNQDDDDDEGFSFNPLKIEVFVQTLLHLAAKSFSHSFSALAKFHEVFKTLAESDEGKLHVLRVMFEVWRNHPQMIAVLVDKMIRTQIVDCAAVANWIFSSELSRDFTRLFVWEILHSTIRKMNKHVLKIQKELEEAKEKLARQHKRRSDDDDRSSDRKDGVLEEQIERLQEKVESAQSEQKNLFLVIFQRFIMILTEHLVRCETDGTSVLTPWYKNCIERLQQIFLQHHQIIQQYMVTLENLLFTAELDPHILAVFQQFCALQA
UniProt Q5SXM8, residues 50-178: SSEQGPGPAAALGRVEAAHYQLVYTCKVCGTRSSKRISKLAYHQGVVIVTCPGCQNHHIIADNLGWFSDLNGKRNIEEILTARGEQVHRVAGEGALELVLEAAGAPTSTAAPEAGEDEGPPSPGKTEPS
UniProt Q9Y623: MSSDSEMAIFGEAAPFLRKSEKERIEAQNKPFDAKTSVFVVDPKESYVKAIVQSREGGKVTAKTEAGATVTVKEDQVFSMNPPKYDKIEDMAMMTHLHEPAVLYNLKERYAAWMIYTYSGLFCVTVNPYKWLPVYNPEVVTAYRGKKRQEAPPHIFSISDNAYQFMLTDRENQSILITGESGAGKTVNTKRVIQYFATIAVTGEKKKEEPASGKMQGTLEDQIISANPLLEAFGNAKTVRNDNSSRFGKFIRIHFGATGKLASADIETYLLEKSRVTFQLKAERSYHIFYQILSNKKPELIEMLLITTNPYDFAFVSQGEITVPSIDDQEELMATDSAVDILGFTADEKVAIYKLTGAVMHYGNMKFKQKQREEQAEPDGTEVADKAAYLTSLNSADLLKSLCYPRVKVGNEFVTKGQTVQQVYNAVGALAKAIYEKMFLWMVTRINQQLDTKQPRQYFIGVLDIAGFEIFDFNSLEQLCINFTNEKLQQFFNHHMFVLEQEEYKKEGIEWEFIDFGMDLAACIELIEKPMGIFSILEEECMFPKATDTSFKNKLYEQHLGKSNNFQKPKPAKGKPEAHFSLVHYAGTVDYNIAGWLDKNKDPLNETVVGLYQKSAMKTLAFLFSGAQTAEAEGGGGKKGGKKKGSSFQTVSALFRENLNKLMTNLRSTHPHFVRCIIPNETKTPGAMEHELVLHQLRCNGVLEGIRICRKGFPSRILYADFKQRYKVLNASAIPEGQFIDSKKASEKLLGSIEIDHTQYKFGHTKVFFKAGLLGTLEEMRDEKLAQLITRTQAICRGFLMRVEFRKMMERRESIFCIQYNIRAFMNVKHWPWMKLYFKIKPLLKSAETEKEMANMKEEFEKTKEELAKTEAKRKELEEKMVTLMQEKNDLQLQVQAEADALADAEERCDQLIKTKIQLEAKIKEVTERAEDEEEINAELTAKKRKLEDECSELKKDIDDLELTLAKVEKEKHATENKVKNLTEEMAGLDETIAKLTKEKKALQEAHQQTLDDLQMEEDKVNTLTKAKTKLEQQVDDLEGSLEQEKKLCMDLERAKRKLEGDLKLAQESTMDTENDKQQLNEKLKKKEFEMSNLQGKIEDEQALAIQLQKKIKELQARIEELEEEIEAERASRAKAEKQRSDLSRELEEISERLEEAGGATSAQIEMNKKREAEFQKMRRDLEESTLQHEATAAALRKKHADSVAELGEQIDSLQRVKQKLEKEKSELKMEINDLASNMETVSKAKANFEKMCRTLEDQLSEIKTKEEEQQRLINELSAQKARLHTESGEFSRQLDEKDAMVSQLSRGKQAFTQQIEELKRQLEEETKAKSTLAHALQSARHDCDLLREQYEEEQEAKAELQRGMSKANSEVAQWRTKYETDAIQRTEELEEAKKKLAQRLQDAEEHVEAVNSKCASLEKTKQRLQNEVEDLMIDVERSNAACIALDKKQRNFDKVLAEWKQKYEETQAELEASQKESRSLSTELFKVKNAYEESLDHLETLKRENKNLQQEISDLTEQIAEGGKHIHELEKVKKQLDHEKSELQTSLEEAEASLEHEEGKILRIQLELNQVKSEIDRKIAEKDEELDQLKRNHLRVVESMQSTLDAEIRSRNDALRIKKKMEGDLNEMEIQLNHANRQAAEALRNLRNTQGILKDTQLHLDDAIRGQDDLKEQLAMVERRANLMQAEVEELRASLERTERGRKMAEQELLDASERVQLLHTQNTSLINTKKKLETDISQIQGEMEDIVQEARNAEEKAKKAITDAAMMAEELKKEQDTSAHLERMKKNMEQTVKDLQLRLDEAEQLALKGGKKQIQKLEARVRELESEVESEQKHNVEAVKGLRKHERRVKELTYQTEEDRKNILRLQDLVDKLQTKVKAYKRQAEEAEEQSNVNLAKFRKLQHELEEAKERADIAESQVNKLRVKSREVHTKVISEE
UniProt Q8NBS9, residues 33-432: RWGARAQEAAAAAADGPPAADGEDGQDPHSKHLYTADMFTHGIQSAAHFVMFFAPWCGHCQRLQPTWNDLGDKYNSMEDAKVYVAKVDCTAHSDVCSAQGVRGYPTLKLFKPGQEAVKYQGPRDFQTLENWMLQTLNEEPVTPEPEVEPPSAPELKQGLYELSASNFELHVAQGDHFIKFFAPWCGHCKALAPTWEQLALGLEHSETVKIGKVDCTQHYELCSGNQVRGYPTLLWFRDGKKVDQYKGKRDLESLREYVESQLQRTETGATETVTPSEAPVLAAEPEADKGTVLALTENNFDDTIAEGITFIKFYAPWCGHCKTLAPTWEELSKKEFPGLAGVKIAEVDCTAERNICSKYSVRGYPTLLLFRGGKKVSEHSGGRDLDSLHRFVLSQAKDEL

Target: Strep-tagged nucleoprotein (NP) of lymphocytic choriomeningitis virus, encoded by rLCMV/Strep-NP (lymphocytic choriomeningitis virus (LCMV), clone 13) (UniProt P09992)
Experiment: affinity purification with mass spectrometry

Row | Substance | binding
1 | Cytoplasmic FMR1-interacting protein 2 (from UniProt Q96F07 1-1278) | binds
2 | Tubulin beta-4B chain (from UniProt P68371 1-445) | binds
3 | RNA-binding motif protein, X chromosome (from UniProt P38159 1-391) | binds
4 | Myosin-9 (from UniProt P35579 1-1960) | binds
5 | Transgelin-2 (from UniProt P37802 1-199) | binds
6 | CAD protein (from UniProt P27708 1-2225) | binds
7 | Poly(rC)-binding protein 1 (from UniProt Q15365 1-356) | binds
8 | Keratin, type II cytoskeletal 7 (from UniProt P08729 1-469) | binds
9 | Cytoplasmic dynein 1 heavy chain 1 (from UniProt Q14204 1-4646) | binds
10 | Filamin-B (from UniProt O75369 1-2602) | binds
11 | Probable ATP-dependent RNA helicase DDX5 (from UniProt P17844 1-614) | binds
12 | Keratin, type II cytoskeletal 75 (from UniProt O95678 1-551) | binds
13 | Stress-70 protein, mitochondrial (from UniProt P38646 47-679) | binds
14 | Clathrin heavy chain 1 (from UniProt Q00610 1-1675) | binds
15 | Aldo-keto reductase family 1 member B10 (from UniProt O60218 1-316) | binds
16 | Endoplasmin (from UniProt P14625 22-803) | binds
17 | Prelamin-A/C (from UniProt P02545 1-646) | binds
18 | Microtubule-associated protein 1B (from UniProt P46821 1-2468) | binds
19 | Heat shock protein HSP 90-alpha (from UniProt P07900 1-732) | binds

Row | Substance | binding
20 | Cytoplasmic FMR1-interacting protein 1 (from UniProt Q7L576 1-1253) | binds
21 | Prefoldin subunit 2 (from UniProt Q9UHV9 1-154) | binds
22 | Heat shock protein 105 kDa (from UniProt Q92598 1-858) | binds
23 | Filamin-A (from UniProt P21333 1-2647) | binds
24 | Heat shock protein HSP 90-beta (from UniProt P08238 1-724) | binds
25 | Alpha-actinin-4 (from UniProt O43707 1-911) | binds
26 | T-complex protein 1 subunit epsilon (from UniProt P48643 1-541) | binds
27 | Elongation factor 1-delta (from UniProt P29692 1-281) | binds
28 | Filamin-C (from UniProt Q14315 1-2725) | binds
29 | Tubulin alpha-1B chain (from UniProt P68363 1-451) | binds
30 | Alpha-actinin-1 (from UniProt P12814 1-892) | binds
31 | Histone H1x (from UniProt Q92522 1-213) | binds
32 | Protein SET (from UniProt Q01105 1-290) | binds
33 | Keratin, type I cytoskeletal 19 (from UniProt P08727 1-400) | binds
34 | Large neutral amino acids transporter small subunit 1 (from UniProt Q01650 1-507) | binds
35 | Histone H1.5 (from UniProt P16401 1-226) | binds
36 | UPF0515 protein C19orf66 (from UniProt Q9NUL5 1-291) | binds
37 | T-complex protein 1 subunit eta (from UniProt Q99832 1-543) | binds
38 | Polyadenylate-binding protein 1 (from UniProt P11940 1-636) | binds

Row | Substance | binding
39 | Pre-mRNA-processing factor 40 homolog A (from UniProt O75400 1-957) | binds
40 | Elongation factor 1-alpha 1 (from UniProt P68104 1-462) | binds
41 | 4F2 cell-surface antigen heavy chain (from UniProt P08195 1-529) | binds
42 | 60 kDa SS-A/Ro ribonucleoprotein (from UniProt P10155 1-538) | binds
43 | Nck-associated protein 1 (from UniProt Q9Y2A7 1-1128) | binds
44 | Spectrin beta chain, non-erythrocytic 1 (from UniProt Q01082 1-2364) | binds
45 | YTH domain-containing family protein 3 (from UniProt Q7Z739 1-585) | binds
46 | T-complex protein 1 subunit theta (from UniProt P50990 1-548) | binds
47 | Nuclear cap-binding protein subunit 1 (from UniProt Q09161 1-790) | binds
48 | Tubulin alpha-4A chain (from UniProt P68366 1-448) | binds
49 | DNL-type zinc finger protein (from UniProt Q5SXM8 50-178) | binds
50 | Heat shock-related 70 kDa protein 2 (from UniProt P54652 1-639) | binds
51 | Heat shock protein beta-1 (from UniProt P04792 1-205) | binds
52 | Tight junction protein ZO-1 (from UniProt Q07157 1-1748) | binds
53 | Tubulin alpha-1C chain (from UniProt Q9BQE3 1-449) | binds
54 | Myosin-4 (from UniProt Q9Y623 1-1939) | binds
55 | Thioredoxin domain-containing protein 5 (from UniProt Q8NBS9 33-432) | binds
56 | Heat shock cognate 71 kDa protein (from UniProt P11142 1-646) | binds
